Here are results for 51 molecules from publication PMC12431657, “Discovery and mechanistic insights of dibenzoylmethane as a broad spectrum inhibitor of coronavirus” (PLOS Pathogens, 2025).

This test deals with HCoV-229E. Also on record: species or system Huh-7; HTS, protection from HCoV-229E induced cell death, luminescent cell viability (CellCounting-Lite 2.0), inhibition rate. The following applies: 24 h post infection, 1 h compound pre-incubation, 10 µM, inhibitor.

Structures can show the parent of a compound that is named as a salt. Where two headings read alike, the source gives them in different places. Screen size: about 3,300 compounds; about 95 (3%) showed an effect of 50% or more. This is one part of the list.

`CCC(C(=O)O)c1ccccc1` (stereo not drawn) [2-Phenylbutanoic acid]: the “229E Inhibition rate” value is listed as 10.2%.

Regarding `Cn1cnc(C[C@H](N)C(=O)O)c1` [1-Methyl-L-histidine], the “229E Inhibition rate” value worked out at 12.7%.

Take `NC(=O)/C=C\C(=O)O` [(Z)-4-Amino-4-oxobut-2-enoic acid]: the “229E Inhibition rate” value came out at 25.2%.

For the molecule `O=C[C@H](O)[C@@H](O)[C@H](O)CO` (racemic) [DL-Xylose], for the setting “229E Inhibition rate, 24 h”, the “229E Inhibition rate” value came to 18.5%.

Turning to `O=C(O)C/C=C(\CC(=O)O)C(=O)O` [Triglochinic acid], the “229E Inhibition rate” value worked out at 21.8%.

In the case of `OC[C@H]1O[C@@](CO)(OC[C@@]2(OC[C@@]3(OC[C@@]4(OC[C@@]5(OC[C@@]6(OC[C@@]7(OC[C@@]8(O[C@H]9O[C@H](CO)[C@@H](O)[C@H](O)[C@H]9O)O[C@H](CO)[C@@H](O)[C@@H]8O)O[C@H](CO)[C@@H](O)[C@@H]7O)O[C@H](CO)[C@@H](O)[C@@H]6O)O[C@H](CO)[C@@H](O)[C@@H]5O)O[C@H](CO)[C@@H](O)[C@@H]4O)O[C@H](CO)[C@@H](O)[C@@H]3O)O[C@H](CO)[C@@H](O)[C@@H]2O)[C@@H](O)[C@@H]1O` [Fructo-oligosaccharide DP9/GF8], the “229E Inhibition rate” value is recorded as 41%.

Turning to `COc1cc2oc(-c3ccccc3)cc(=O)c2c(O)c1O` [Negletein], the “229E Inhibition rate” value stood at 43.2%.

`COC(=O)c1ccc(O)cc1` [Methyl Paraben]: the “229E Inhibition rate” value is listed as 8%.

`COc1c(-c2ccc(O)c(O)c2)oc2cc(O)cc(O)c2c1=O` [3-O-Methylquercetin]: the “229E Inhibition rate” value came out at 37.8%.

Turning to `COC(=O)C1=CO[C@@H](O[C@@H]2O[C@H](CO)[C@@H](O)[C@H](O)[C@H]2O)[C@@H]2[C@@H](C)CC(=O)[C@]12O` [Hastatoside], the “229E Inhibition rate” value stood at 0%.

Turning to `O=C(O)c1ccc(O)cc1O` [2,4-Dihydroxybenzoic acid], the “229E Inhibition rate” value turned out to be 7.4%.

Consider `COc1cc(CCO[C@@H]2O[C@H](CO[C@@H]3O[C@H](CO)[C@@H](O)[C@H](O)[C@H]3O)[C@@H](OC(=O)/C=C/c3ccc(O)c(O)c3)[C@H](O[C@@H]3O[C@@H](C)[C@H](O)[C@@H](O)[C@H]3O)[C@H]2O)ccc1O` [Cistanoside A], for which the “229E Inhibition rate” value is 10.3%.

`COc1cc(O)c2c(=O)cc(-c3ccccc3)oc2c1` [Tectochrysin]: the “229E Inhibition rate” value worked out at 15.9%.

For `C[C@H](CCC(=O)NCC(=O)O)[C@H]1CC[C@H]2[C@@H]3CC[C@@H]4C[C@H](O)CC[C@]4(C)[C@H]3C[C@H](O)[C@]12C` [Glycodeoxycholic Acid], for the setting “229E Inhibition rate, 24 h”, the “229E Inhibition rate” value was 10.1%.

With `CC(C)C1=CC2=CC[C@@H]3[C@](C)(CCC[C@@]3(C)C(=O)O)[C@H]2CC1` [Abietic acid], the “229E Inhibition rate” value amounted to 49.1%.

Take `C[C@@H]1O[C@@H](O[C@H]2[C@H](OC(=O)[C@]34CCC(C)(C)C[C@H]3C3=CC[C@@H]5[C@@]6(C)C[C@H](O)[C@@H]7O[C@@H]8O[C@H](CO)[C@@H](O)[C@H](O)[C@H]8O[C@@H]8OC[C@H](O)[C@H](O)[C@H]8OC(=O)C[C@@](C)(O)CC(=O)OC[C@@]7(C)[C@@H]6CC[C@@]5(C)[C@]3(C)CC4)OC[C@H](O)[C@@H]2O)[C@H](O)[C@H](O[C@@H]2OC[C@@H](O)[C@H](O)[C@H]2O)[C@H]1O` [Tubeimoside I]: the “229E Inhibition rate” value amounted to 25.1%.

As for `CC(=O)O[C@]1(C)CC[C@@]23C[C@@H]1C(C)(C)[C@@H]2CC[C@H]3C` [Cedryl acetate], the “229E Inhibition rate” value was 0%.

With `C[C@@H]1CC[C@@]2(OC1)O[C@H]1C[C@H]3[C@@H]4CC=C5C[C@@H](O)C[C@@H](O[C@@H]6O[C@H](C)[C@H](O)[C@H](O[C@@H]7OC[C@@H](O)[C@H](O)[C@H]7O)[C@H]6O[C@@H]6O[C@H](CO)[C@@H](O)[C@H](O)[C@H]6O)[C@]5(C)[C@H]4CC[C@]3(C)[C@H]1[C@@H]2C` [Saponin C, from Liriope muscari], the “229E Inhibition rate” value worked out at 0%.

In the case of `COc1cc(O)c(CC=C(C)C)c(O)c1C(=O)/C=C/c1ccc(O)cc1` [Xanthohumol], the “229E Inhibition rate” value amounted to 6.9%.

For `O=c1c(-c2ccc(O)cc2)coc2c([C@@H]3O[C@H](CO)[C@@H](O)[C@H](O)[C@H]3O)c(O)ccc12` [Puerarin], the “229E Inhibition rate” value was determined as 18.7%.

As to `C/C=C(/C)C(=O)O[C@@H]1c2c(ccc3ccc(=O)oc23)OC(C)(C)[C@@H]1OC(C)=O` [Pteryxin], the “229E Inhibition rate” value is recorded as 4.8%.

In the case of `O=C1O[C@H]([C@@H](O)CO)C(O)=C1O` [L-Ascorbic acid], the “229E Inhibition rate” value (229E Inhibition rate, 24 h) was 17.7%.

Regarding `CC(C)=CCC/C(C)=C/CC/C(C)=C/CC/C(C)=C/CC/C(C)=C/CC/C(C)=C/CC/C(C)=C/CC/C(C)=C/CC/C(C)=C/CO` [Solanesol], the “229E Inhibition rate” value came out at 12.2%.

As for `COC(=O)c1ccccc1C(=O)O` [Monomethyl phthalate], the “229E Inhibition rate” value is 7.7%.

In the case of `COc1ccc([C@H]2OC[C@H]3[C@@H]2CO[C@H]3c2cc(OC)c(OC)c(OC)c2)cc1OC` [Epimagnolin A], the “229E Inhibition rate” value came out at 17.9%.

Turning to `c1cc2c(cc1O[C@H]1OC[C@H]3[C@@H]1CO[C@@H]3c1ccc3c(c1)OCO3)OCO2` [Sesamolin], the “229E Inhibition rate” value was found to be 62.2%.

As for `C[C@@H]1O[C@@H](O[C@H]2[C@H](O[C@H]3CC[C@@]4(C)[C@@H](CC[C@]5(C)[C@@H]4CC=C4[C@@H]6CC(C)(C)CC[C@]6(C(=O)O[C@@H]6O[C@H](CO[C@@H]7O[C@H](CO)[C@@H](O[C@@H]8O[C@@H](C)[C@H](O)[C@@H](O)[C@H]8O)[C@H](O)[C@H]7O)[C@@H](O)[C@H](O)[C@H]6O)CC[C@]45C)[C@]3(C)CO)OC[C@H](O)[C@@H]2O)[C@H](O)[C@H](O)[C@H]1O` [Hederacoside C], the “229E Inhibition rate” value is reported as 21%.

As for `C[C@@H]1CC[C@]2(C(=O)O)CC[C@]3(C)C(=CC[C@@H]4[C@@]5(C)CC[C@H](O)[C@](C)(C(=O)O)[C@@H]5CC[C@]43C)[C@@H]2[C@]1(C)O` [Ilexgenin A], the “229E Inhibition rate” value came to 10.2%.

`C/C=C1/CN2[C@@H]3C[C@@]45c6ccccc6N[C@]4(O3)[C@@H]2C[C@@H]1[C@H]5C(=O)OC` [Picrinine]: the “229E Inhibition rate” value was 51.7%.

As to `C[C@]12CC[C@@H]3c4ccc(O)cc4CC[C@H]3[C@@H]1CC[C@H]2O` [Alpha-Estradiol], the “229E Inhibition rate” value is recorded as 18.2%.

With `CCCCCCCCCC(=O)NCc1ccc(O)c(OC)c1` [N-Vanillyldecanamide], the “229E Inhibition rate” value amounted to 0%.

For the molecule `CCCCCCCCCCCCCCCCCCCCCCCCCCCCC` [Nonacosane], the “229E Inhibition rate” value came to 31.8%.

As for `Cc1cc(O)c2c(=O)c3c(O)cc(O)c4c5c(O)cc(O)c6c(=O)c7c(O)cc(C)c8c1c2c(c34)c(c78)c65` [Hypericin], the “229E Inhibition rate” value was 19.1%.

For `CC(=O)O[C@H]1CC/C(C)=C/CC/C(C)=C/C[C@]2(C(C)C)CC[C@@]1(C)O2` [Incensole Acetate], the “229E Inhibition rate” value stood at 12.5%.

With `CC(C)=CCNc1ncnc2nc[nH]c12` [6-(γ,γ-Dimethylallylamino)purine], the “229E Inhibition rate” value was 12.7%.

With `C[C@H]1CC[C@]2(NC1)O[C@H]1C[C@H]3[C@@H]4CC[C@H]5C[C@@H](O)CC[C@]5(C)[C@H]4CC[C@]3(C)[C@H]1[C@@H]2C` [Tomatidine (hydrochloride)], the “229E Inhibition rate” value (229E Inhibition rate, 24 h) is 28.3%.

Take `CC(C)CC1NC(=O)C(Cc2ccc(O)cc2)NC1=O` (stereo not drawn) [Cyclo(Tyr-Leu)]: the “229E Inhibition rate” value was 23%.

Take `CCCCCC(=O)O[C@H](CC(=O)[O-])C[N+](C)(C)C` [L-Hexanoylcarnitine]: the “229E Inhibition rate” value is 26.2%.

For `COc1cc2c(cc1OC)-c1cc3ccc4c(c3c(=O)n1CC2)OCO4` [8-Oxoepiberberine], the “229E Inhibition rate” value is on record as 17.9%.

With `CC(=O)O[C@H]1Cc2c(cc3oc(C)cc(=O)c3c2O)OC1(C)C` [3'-O-Acetylhamaudol], the “229E Inhibition rate” value is given as 8.4%.

Regarding `CC1=C(CC[C@@H](C)CO[C@@H]2O[C@H](CO)[C@@H](O)[C@H](O)[C@H]2O)O[C@H]2C[C@H]3[C@@H]4CC=C5C[C@@H](O[C@@H]6O[C@H](CO)[C@@H](O[C@@H]7O[C@@H](C)[C@H](O)[C@@H](O)[C@H]7O)[C@H](O)[C@H]6O[C@@H]6O[C@@H](C)[C@H](O)[C@@H](O)[C@H]6O)CC[C@]5(C)[C@H]4CC[C@]3(C)[C@@H]12` [Pseudoprotodioscin], the “229E Inhibition rate” value amounted to 11.2%.

For the molecule `CC(C)=C[C@H]1C[C@](C)(O)[C@@H]2[C@H]3CC[C@@H]4[C@@]5(C)CC[C@H](O[C@@H]6OC[C@H](O)[C@H](O[C@@H]7O[C@H](CO[C@@H]8O[C@H](CO)[C@@H](O)[C@H](O)[C@H]8O)[C@@H](O)[C@H](O)[C@H]7O[C@@H]7OC[C@@H](O)[C@H](O)[C@H]7O)[C@H]6O[C@@H]6O[C@@H](C)[C@H](O)[C@@H](O)[C@H]6O)C(C)(C)[C@@H]5CC[C@@]4(C)[C@@]34CO[C@@]2(C4)O1` [Jujuboside A], the “229E Inhibition rate” value worked out at 16.6%.

Consider `COc1cc2oc(=O)ccc2c(OC)c1CC=C(C)C` [Toddaculin], for which the “229E Inhibition rate” value came out at 16.5%.

On to `COc1cc(C)c2c(=O)c(-c3ccccc3)coc2c1` [5-Methyl-7-methoxyisoflavone], for which the “229E Inhibition rate” value amounted to 16%.

Take `COc1cc(O)cc(O)c1C(=O)/C=C/c1ccccc1` [Cardamonin]: the “229E Inhibition rate” value came to 35.3%.

As to `CCCCCCCCCCCCCCCCCCO` [1-Hydroxyoctadecane], the “229E Inhibition rate” value came to 13.3%.

As to `CC(=O)O[C@H]1C(=O)c2c(O)cc(O)cc2O[C@@H]1c1ccccc1` [Pinobanksin 3-acetate], the “229E Inhibition rate” value was determined as 0%.

Take `COc1cc2oc(-c3ccc(O)cc3)cc(=O)c2c(O)c1OC` [Cirsimaritin]: the “229E Inhibition rate” value is recorded as 24%.

For the molecule `COc1ccc(CCC(=O)c2ccc(O)cc2)c(OC)c1` [Loureirin A], the “229E Inhibition rate” value is recorded as 6.1%.

Regarding `COc1ccc2c(OC)c3ccoc3nc2c1OC` [Skimmianine], the “229E Inhibition rate” value is reported as 40.9%.

With `C1CCN2C[C@@H]3C[C@@H](CN4CCCC[C@@H]34)[C@H]2C1` [(-)-Sparteine], the “229E Inhibition rate” value was 13.7%.
